Laboratory results from publication PMC7862700.
This is a selection; strong and weak results do not stand in their true shares. For some assays here: At the low end of the ranking the order means little. Some of the results follow. For some assays here: Construct or isoform of the protein are uncertain.

Chains of the proteins cited; added tags and fusions are not shown. Lines headed by an entry give the natural chain unless they say otherwise; changes in a name come on top.
UniProt Q00613: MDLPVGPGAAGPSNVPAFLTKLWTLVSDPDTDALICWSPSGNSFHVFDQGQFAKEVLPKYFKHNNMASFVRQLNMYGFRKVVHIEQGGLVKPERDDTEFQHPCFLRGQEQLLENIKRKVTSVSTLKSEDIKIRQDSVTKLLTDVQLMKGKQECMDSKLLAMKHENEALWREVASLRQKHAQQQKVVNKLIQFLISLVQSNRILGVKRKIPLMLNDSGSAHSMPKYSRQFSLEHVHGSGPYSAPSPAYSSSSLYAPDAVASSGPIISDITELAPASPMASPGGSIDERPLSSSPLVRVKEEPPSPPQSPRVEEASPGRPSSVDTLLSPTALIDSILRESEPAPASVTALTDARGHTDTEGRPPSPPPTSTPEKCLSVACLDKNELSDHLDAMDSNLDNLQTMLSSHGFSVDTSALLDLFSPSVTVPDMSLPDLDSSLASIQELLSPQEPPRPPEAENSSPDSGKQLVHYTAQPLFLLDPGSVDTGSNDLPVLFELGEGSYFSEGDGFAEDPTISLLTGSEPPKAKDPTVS

biological target: HSF1 (UniProt Q00613); assay: DAPPL (digital affinity profiling via proximity ligation, sequencing); settings: 10 mM Tris-HCl pH 7.5, 50 mM NaCl, 1 mM DTT, 4% glycerol, room temperature, 30 min; GST-TFs on glutathione beads, 16-mer random dsDNA library, 0.1% …; high values mean tight binding; double strand, one strand shown; scale: fold enrichment (6-mer frequency, TF over GST control)

Row | Sequence | binding signal
1 | AATGAC | 1.22
2 | TGGGGT | 0.898
3 | CGGCCC | 0.667
4 | GCGATT | 1.23
5 | CGCTGC | 0.89
6 | CTTTGC | 1.25
7 | AATTCT | 2.25
8 | GAAAGC | 0.928
9 | ATTGGC | 0.943
10 | CACTAC | 0.963
11 | ACTGGG | 0.759
12 | TCTGAC | 1.07
13 | GAGCTC | 0.93
14 | GCGCGC | 0.946
15 | GGCCCT | 0.81
16 | TACATA | 1.15
17 | CTGCTT | 1.53
18 | ACGGCA | 0.82
19 | CGTACC | 0.951
20 | CGTCAT | 0.798

Row | Sequence | binding signal
21 | GTCAAA | 0.785
22 | CTGACC | 0.972
23 | TATCTG | 1.36
24 | GTATGT | 0.812
25 | ACTAGG | 0.965
26 | GCTACT | 1.07
27 | CCCTCA | 1.03
28 | CGTCTT | 1.31
29 | ACCTTT | 1.36
30 | CCTTCC | 1.81
31 | TGTGCA | 0.858
32 | TGAAGC | 0.968
33 | AACCGG | 0.692
34 | ATTAAC | 2.07
35 | TGCTCC | 1.27
36 | CGACTG | 1.02
37 | AGTATG | 0.902
38 | GTTGCC | 0.748
39 | AACTGT | 0.841
40 | CGACCA | 1.14

biological target: T1, ELF2 (UniProt Q15723); assay: as above; settings: 10 mM Tris-HCl pH 7.5, 50 mM NaCl, 1 mM DTT, 4% glycerol, room temperature, 30 min; GST-TFs on glutathione beads, 16-mer random dsDNA library, 0.1% …; high values mean tight binding; double strand, one strand shown; scale: fold enrichment (6-mer frequency, TF over GST control)
T1 sequence: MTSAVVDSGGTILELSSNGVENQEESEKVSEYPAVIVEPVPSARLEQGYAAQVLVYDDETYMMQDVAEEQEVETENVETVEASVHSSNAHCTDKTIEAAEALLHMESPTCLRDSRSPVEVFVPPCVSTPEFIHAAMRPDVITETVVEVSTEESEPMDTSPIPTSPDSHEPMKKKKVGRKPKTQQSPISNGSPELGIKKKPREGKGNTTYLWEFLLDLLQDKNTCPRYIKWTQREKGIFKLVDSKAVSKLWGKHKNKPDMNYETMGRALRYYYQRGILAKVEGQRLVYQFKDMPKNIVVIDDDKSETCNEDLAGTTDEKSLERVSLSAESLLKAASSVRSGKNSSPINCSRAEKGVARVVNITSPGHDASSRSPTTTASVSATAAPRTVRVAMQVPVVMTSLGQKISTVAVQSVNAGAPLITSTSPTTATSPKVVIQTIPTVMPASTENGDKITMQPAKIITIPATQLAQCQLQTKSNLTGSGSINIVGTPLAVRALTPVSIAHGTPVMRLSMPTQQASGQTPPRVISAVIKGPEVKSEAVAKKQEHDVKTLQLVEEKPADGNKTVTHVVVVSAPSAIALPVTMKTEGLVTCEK

Row | Sequence | binding signal
41 | AATGAC | 1.36
42 | TGGGGT | 0.987
43 | CGGCCC | 0.931
44 | GCGATT | 0.933
45 | CGCTGC | 1.13
46 | CTTTGC | 1.24
47 | AATTCT | 1.28
48 | GAAAGC | 0.877
49 | ATTGGC | 1.09
50 | CACTAC | 1.32
51 | ACTGGG | 0.781
52 | TCTGAC | 1.15
53 | GAGCTC | 0.901
54 | GCGCGC | 1.05
55 | GGCCCT | 0.952
56 | TACATA | 1.18
57 | CTGCTT | 1.76
58 | ACGGCA | 1.01
59 | CGTACC | 1.19
60 | CGTCAT | 0.926

Row | Sequence | binding signal
61 | GTCAAA | 0.905
62 | CTGACC | 1.33
63 | TATCTG | 1.21
64 | GTATGT | 0.941
65 | ACTAGG | 1.02
66 | GCTACT | 1.29
67 | CCCTCA | 1.09
68 | CGTCTT | 1.37
69 | ACCTTT | 1.34
70 | CCTTCC | 3.41
71 | TGTGCA | 1.08
72 | TGAAGC | 0.968
73 | AACCGG | 1.93
74 | ATTAAC | 1.24
75 | TGCTCC | 1.24
76 | CGACTG | 0.976
77 | AGTATG | 1.02
78 | GTTGCC | 0.935
79 | AACTGT | 0.947
80 | CGACCA | 1.17
